In patent US20240173353A1, “UNIVERSAL CHIMERIC ANTIGEN RECEPTOR T-CELL AND APPLICATION THEREOF” (SHANGHAI IASO BIOTECHNOLOGY CO., LTD., priority 2021, published 2024):
At least one compound was matched to its structure with a doubt left.

Key:
NK cells = experiment: CD107a release of NK cells activated by K562; assay type: cell-based, human; conditions: CD3-negative PBMC, 200 nM ponatinib overnight, K562 6 hr
Experimental: The inventor used Miltenyi human NK sorting magnetic beads to separate NK cells from human peripheral blood, and used DAKEWE NK medium to culture and expand them in vitro. On Day 8, a population of NK cells with more than 95% having positive CD56 expression could be obtained. These NK cells were taken out and treated with 0 nM, 100 nM and 200 nM dasatinib respectively for 24 hr, and then divided into two groups, one of which was not activated, and the other group was stimulated with MHC-class I molecule-deficient K562 cells for 5 hr. Then, the CD107a release of NK cells were detected in both of them.
The inventors isolated NK cells from human PBMCs, and then cultured and differentiated them in NK medium to obtain CD56-positive NK cells with a purity higher than 95%. […] Two replicates were set for each group. anti-CD107a antibody and monensin were added while carrying out activation, and after co-incubation for 6 hr, the CD107a release of CD56-positive NK cells was detected by flow cytometry. […]
In order to repeatedly verify that the inhibition of NK cell activation function by dasatinib has an extended effect, the inventors repeated the above experiment. […] After 4 hr of co-incubation, CD107a release from CD56 positive NK cells was detected. […]

anti-BCMA-CAR-T cells = experiment: CD107a translocation of anti-BCMA-CAR-T cells co-incubated with target cells; assay type: cell-based, human; conditions: wild-type anti-BCMA CAR-T, adjusted to 50 nM or higher

Q: What does the source list for `Cc1ccc(C(=O)Nc2ccc(CN3CCN(C)CC3)c(C(F)(F)F)c2)cc1C#Cc1cnc2cccnn12` [ponatinib]?
A: activation of NK cells by K562 (CD107a release) (NK cells): basically unable to activate NK cells; percentage of CD107a positive cells (anti-BCMA-CAR-T cells; 200 nM pretreatment): decreased to the same level as the negative control group; percentage of CD107a positive cells (anti-BCMA-CAR-T cells; 500 nM pretreatment): decreased to the same level as the negative control group
